No constants are given. Whether binding was seen depends on the method and setting. Some entries that bind do so weakly or less than the wild type.

This assay concerns the target recombinant human VEGF R1 (Flt-1)/Fc chimera (R&D Systems, Catalog No. 321-FL/CF) (human) (UniProt P17948). Description: ELISA: PlGF 1 ug/ml on plate-captured Flt-1/Fc; complex shown by the comparison antibodies. Background: ELISA stands for enzyme-linked immunosorbent assay.

B1: recombinant human PlGF (R&D Systems, Catalog No. 264-PG/CF) (ligand, UniProt P49763-2 21-149, looked up)
chain: AVPPQQWALSAGNGSSEVEVVPFQEVWGRSYCRALERLVDVVSEYPSEVEHMFSPSCVSLLRCTGCCGDENLHCVPVETANVTMQLLKIRSGDRPSYVELTFSQHVRCECRPLREKMKPERCGDAVPRR
Take B1: the binding result is reported as “binds”.

(Values after patent publication US20090068679A1.)
